PubChem BioAssay AID1259308, NCATS | 2017

Aim: 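Candidate targets for better recombinant protein yield in mammalian cells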 (primary screen)
Cell system: human HEK293 embryonic kidney cells stably expressing firefly luciferase (HEK-CMV-Luc2-Hygro)
Reagents: single siRNA against human genes, 0.8 pmol siRNA per well
Timing: 72 h
Measured: 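Luciferase light (ONE-Glo) measured on one replicate plate set and viability (CellTiter-Glo) on the other, scaled to a negative control siRNA, with robust z-scores and luciferase per cell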
Reading the numbers: total luciferase, z-score: higher = more reporter protein produced
Call rule: 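Active when the median/MAD z-score for overall luciferase is greater than 3; a gene was taken forward for validation with new siRNAs if at least two of its three siRNAs passed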
Meaning of the calls: active = raised luciferase; inactive = no rise
Shown is an unselected part of about 59,000 reagents tested. About 1,510 of them (2.6%) were called active. 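Calls use total luciferase alone and ignore viability, so some active siRNAs may act by altering cell number.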 The numbers tell different reagents against one gene apart. Not all columns of the deposit are shown.

no.	Target gene	siRNA no.	total luciferase, z-score	activity call
1	PNKP	1	0.22	inactive
2	PNKP	2	0.326	inactive
3	PNKP	3	-0.0191	inactive
4	PROX2	1	-0.263	inactive
5	PROX2	2	-0.78	inactive
6	PROX2	3	2.18	inactive
7	NOXO1	1	-0.856	inactive
8	NOXO1	2	-0.494	inactive
9	NOXO1	3	0.75	inactive
10	TNFRSF10A	1	0.0778	inactive
11	TNFRSF10A	2	-0.213	inactive
12	TNFRSF10A	3	-0.159	inactive
13	ANXA1	1	0.671	inactive
14	ANXA1	2	0.518	inactive
15	ANXA1	3	-0.531	inactive
16	ETFBKMT	1	0.5	inactive
17	ETFBKMT	2	1.27	inactive
18	ETFBKMT	3	0.168	inactive
19	RP1L1	1	-1.19	inactive
20	RP1L1	2	0.452	inactive
21	RP1L1	3	-0.52	inactive
22	NLRP7	1	-2.37	inactive
23	NLRP7	2	1.02	inactive
24	NLRP7	3	-0.521	inactive
